Experimental data as given in ChEMBL document CHEMBL1144115, “Antibacterial diterpenoid acids from Azorella compacta” (1999).

Tested on: Candida albicans
Test: Antimicrobial activity against Candida albicans at 100 ug after 18 hrs by agar diffusion test
Format: functional, organism-based

Q: How did the inhibition zone (IZ) turn out when NYSTATIN was run?
A: 16 mm
